Results: the supplement of paper PMC3334620
Whole data set: some 33,000 sequences, median “E-score (-0.5 to 0.5)” near -0.015, cut for the highest 2% near 0.3. The list shows a part of the results.

The sequences below were run against T1, Abf1 (UniProt P14164) (assay: PBM E-score (8-mer binding enrichment) (E-score (-0.5 to 0.5)); higher = stronger / more preferred TF binding). Conditions: protein concentration: 200 nM; construct: GST-full length.
T1 sequence: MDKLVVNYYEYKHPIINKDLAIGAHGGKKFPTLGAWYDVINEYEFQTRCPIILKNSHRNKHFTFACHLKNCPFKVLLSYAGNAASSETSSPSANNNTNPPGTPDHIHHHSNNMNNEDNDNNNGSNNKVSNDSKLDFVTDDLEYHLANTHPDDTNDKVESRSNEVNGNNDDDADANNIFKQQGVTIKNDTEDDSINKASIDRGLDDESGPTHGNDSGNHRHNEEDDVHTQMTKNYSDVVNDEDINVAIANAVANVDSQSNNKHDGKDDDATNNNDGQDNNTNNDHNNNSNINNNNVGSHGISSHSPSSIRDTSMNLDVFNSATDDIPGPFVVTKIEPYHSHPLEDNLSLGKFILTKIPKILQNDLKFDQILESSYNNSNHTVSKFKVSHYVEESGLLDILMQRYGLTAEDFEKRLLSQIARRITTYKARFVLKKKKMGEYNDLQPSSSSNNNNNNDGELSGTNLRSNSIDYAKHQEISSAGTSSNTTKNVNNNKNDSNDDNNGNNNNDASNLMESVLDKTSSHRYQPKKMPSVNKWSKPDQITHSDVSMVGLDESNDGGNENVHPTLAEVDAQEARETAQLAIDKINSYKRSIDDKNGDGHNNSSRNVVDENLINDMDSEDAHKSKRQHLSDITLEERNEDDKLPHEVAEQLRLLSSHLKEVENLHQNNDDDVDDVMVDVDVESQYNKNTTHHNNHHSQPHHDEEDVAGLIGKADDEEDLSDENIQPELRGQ
How it was run: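 Universal all-10-mer Agilent arrays, fresh or stripped once, were converted to double-stranded form by primer extension. GST-tagged yeast transcription factors from PURExpress in vitro transcription/translation, full-length or DNA-binding domain only, were applied at about 100-200 nM and detected with fluorescent anti-GST. After masliner normalisation, the Universal PBM Analysis Suite scored each ungapped eight-base word together with its reverse complement by E-score.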

Sequence	PBM E-score
GCAAGCCA	-0.0325
GAATATGC	-0.0435
GAGCGTTA	0.0982
ATTGGCAC	0.0333
CTACGGAC	0.0572
GATACGGA	0.279
ATTACGGG	-0.0226
AGTTGTAT	0.00525
CCTGTTGA	-0.00684
AGAGTACA	-0.0805
ACCCCGCA	0.0217
AGACACCA	-0.0405
TCCACAGA	-0.0113
GAACTCCA	0.0468
CGGAGACG	0.0614
CGCCACTA	-0.0983
CGAACTGA	-0.192
ATCGTGCG	0.366
CGCCTAAG	-0.012
CCAAGTCG	0.0822
AATTATGA	0.24
GCAGATAA	0.0204
AGCTTACG	0.0124
GAGACAGC	-0.0321
CCCACCTC	-0.29

Copied from the entries so far (two entries):
Sequence	PBM E-score
GAGACAGC	-0.0321
CCCACCTC	-0.29

More results:

Sequence	PBM E-score
GTATAAGA	0.179
GACCCTCA	-0.172
GCCGCTGA	-0.189
AATGCTGA	-0.033
TGCCCGCA	-0.00977
ATATACGC	0.146
CGAAGTCC	-0.103
AGGTTTCC	-0.0868
GTTATTTA	0.0322
AAAGCTGA	-0.114
AGCTTAGC	0.044
CAATCGAC	0.0189
ACGAGAGT	0.0659
GTGAAAAA	0.221
CCCTTAGG	-0.0737
AGCGTTAG	-0.0881
ATGAATAG	-0.00206
AGAGGAAC	-0.139
CTCCTCCA	-0.157
ACTGACAG	0.0216
CAGGCGTC	-0.21
ATGAACAG	-0.0351
ATGCCGTG	0.209
AAGCTAGC	0.0216
CCATAATC	-0.0528

Sequence	PBM E-score
AGGCTGAC	-0.203
GGAATAGA	0.0791
CAGAGAAG	-0.0774
CGACCGAA	0.102
AAGGGTAT	-0.16
GAAGTTGA	-0.0437
AGAGTGCG	-0.0544
AGATCTAA	-0.0645
GCCCGTAA	-0.012
CCACTAGC	-0.193
CCACAAGG	-0.192
GCGGATCC	-0.34
AATTCATG	0.0291
AGGTGAAA	0.0563
ACTCACAA	-0.0829
CAATGCCC	-0.0566
CACCGATC	0.0259
AGAGTGGA	-0.0978
GCGACGAC	0.098
GAACGCGC	0.0459
ACCACAAT	-0.149
GCCGTTCA	0.156
GAGACCTA	-0.135
CCATAGAG	-0.148
ATGGGGAC	-0.0783

Random excerpt: two records from the list.
Sequence	PBM E-score
AGAGTGCG	-0.0544
AGATCTAA	-0.0645

More entries.

Sequence	PBM E-score
ACCTCTCA	-0.0244
CTACTAAC	0.0614
ATGCCGAC	0.107
GCCGCCGC	-0.336
ACTACCCG	0.0299
AAAGCAGC	0.0235
CTCATCGA	-0.0667
CAAAGACG	0.0622
AACGCCAC	-0.145
CATGATTA	0.227
CTACCTTC	0.0107
ACGAGTTC	0.206
CAAGACAG	-0.162
CAGCAATG	-0.203
AGACGGTG	0.0281
GGCCAACA	-0.215
CCCAGCGA	-0.0331
ACACAGAT	-0.0531
ACACATTA	-0.117
ACGCATAA	0.175
GGCCCTCA	-0.125
AGCCCTGG	-0.171
GCCACTAC	-0.112
GCAACGGC	0.186
CTTTCGAC	0.0853

Sequence	PBM E-score
ATACGGGG	0.172
GGCACGTA	-0.0676
AGTCGGAG	-0.311
AGCTGGCA	-0.0797
AGGGGGTA	-0.358
CCTTGCGA	-0.104
ATCAGAAC	-0.00643
AAACTGGC	-0.23
TAGCCAAA	0.123
ATATTGCA	0.0736
TGACCCAA	0.0427
CTCTAGTC	-0.285
ATTATACC	0.217
CAACCGTC	0.0659
ACTTTCAC	0.0339
CCTAGCGC	-0.132
AACACACT	0.0283
AGTGCATG	-0.0169
GCCTTCAA	-0.248
ATATCGCC	0.269
ACAAAGCT	-0.164
GTTTGATA	0.125
CGCAATTA	-0.149
AAAGTACG	0.153
GTCATACA	-0.0367

Another view of some results above:
AGCTGGCA
  PBM E-score = -0.0797
AGGGGGTA
  PBM E-score = -0.358
CCTTGCGA
  PBM E-score = -0.104
ATCAGAAC
  PBM E-score = -0.00643

Remaining list, next part

Sequence	PBM E-score
AATAGTAG	0.109
CCATTGAA	0.00146
CTATCAGC	0.135
GTCGGCTA	0.112
GGATCGTA	0.29
GAGGGATA	0.0156
CTAACCCC	-0.249
ACACTCCA	-0.0399
GGATCTAA	-0.161
ATTACGTG	0.176
CGCTTACG	-0.0746
AACTAGCG	0.108
AATCTGTG	-0.106
AGGCGTGG	-0.332
AACCAGTC	-0.131
CCAAGCAG	-0.198
CTCATGAC	0.245
AGACGGCG	0.306
TACGGGCA	0.0592
ACGCACAT	-0.00733
ATAGATAG	0.0667
CTCGCGAC	0.238
CCAAGACA	-0.0658
AGTCTTTA	-0.294
AGTATCAT	0.286

Sequence	PBM E-score
CTTGACTA	0.0483
AGCTGGAA	-0.193
ATTCCTCA	0.0866
ACACGTCA	0.151
CCGAAACA	0.0637
CTTGGCTA	0.0251
ACGTTGCA	0.195
GAAGACGA	0.207
ATTCGAAT	0.0643
ATGCCGAA	0.051
CCACCCTC	-0.0751
CCCAGGAA	-0.188
ACTATTTG	0.119
AGTGGACG	0.099
GACCCCGC	-0.114
AACCTGTA	-0.155
CGGAGGCA	-0.19
CGACAGAC	-0.156
GTAACTAC	0.117
AAATCTCT	-0.00019
GCGCCTTA	0.00196
AACCACAA	-0.061
